{"source": "PubChem BioAssay AID1259308 (NCATS, 2017)", "screen": "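Genes whose loss raises luciferase production in HEK293 cells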 (primary screen)", "cells": "human HEK293 embryonic kidney cells stably expressing firefly luciferase (HEK-CMV-Luc2-Hygro)", "reagent": "single siRNA against human genes, 0.8 pmol siRNA per well", "time to read-out": "72 h", "read-out": "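Luciferase light (ONE-Glo) measured on one replicate plate set and viability (CellTiter-Glo) on the other, scaled to a negative control siRNA, with robust z-scores and luciferase per cell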", "scale": "total luciferase, z-score: higher = more reporter protein produced", "hit rule": "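An siRNA counts as active if its total luciferase robust z-score exceeds 3; genes with two or more such siRNAs out of three were retested with fresh siRNAs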", "meaning of the calls": "active = raised luciferase; inactive = no rise", "note": "In all, the deposit lists about 59,000 reagents; below is an unselected part. About 1,510 of them (2.6%) were called active. 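Calls use total luciferase alone and ignore viability, so some active siRNAs may act by altering cell number.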 The numbers tell different reagents against one gene apart. Further read-outs or replicates are left out here."}
{"gene symbol": "HMGN1P31", "siRNA no.": 1, "total luciferase, z-score": 0.105, "Outcome": "inactive"}
{"gene symbol": "HMGN1P31", "siRNA no.": 2, "total luciferase, z-score": 0.832, "Outcome": "inactive"}
{"gene symbol": "HMGN1P31", "siRNA no.": 3, "total luciferase, z-score": 1.21, "Outcome": "inactive"}
{"gene symbol": "UBOX5 (U-box domain containing 5)", "siRNA no.": 1, "total luciferase, z-score": -0.245, "Outcome": "inactive"}
{"gene symbol": "UBOX5 (U-box domain containing 5)", "siRNA no.": 2, "total luciferase, z-score": 0.827, "Outcome": "inactive"}
{"gene symbol": "UBOX5 (U-box domain containing 5)", "siRNA no.": 3, "total luciferase, z-score": 2.23, "Outcome": "inactive"}
{"gene symbol": "C19orf48P (chromosome 19 open reading frame 48, pseudogene)", "siRNA no.": 1, "total luciferase, z-score": 0.559, "Outcome": "inactive"}
{"gene symbol": "C19orf48P (chromosome 19 open reading frame 48, pseudogene)", "siRNA no.": 2, "total luciferase, z-score": -1.71, "Outcome": "inactive"}
{"gene symbol": "C19orf48P (chromosome 19 open reading frame 48, pseudogene)", "siRNA no.": 3, "total luciferase, z-score": -1.04, "Outcome": "inactive"}
{"gene symbol": "UGT2B7 (UDP glucuronosyltransferase family 2 member B7)", "siRNA no.": 1, "total luciferase, z-score": 0.0739, "Outcome": "inactive"}
{"gene symbol": "UGT2B7 (UDP glucuronosyltransferase family 2 member B7)", "siRNA no.": 2, "total luciferase, z-score": 0.227, "Outcome": "inactive"}
{"gene symbol": "UGT2B7 (UDP glucuronosyltransferase family 2 member B7)", "siRNA no.": 3, "total luciferase, z-score": 0.515, "Outcome": "inactive"}
{"gene symbol": "LOC729866 (retired record)", "siRNA no.": 1, "total luciferase, z-score": 0.902, "Outcome": "inactive"}
{"gene symbol": "LOC729866 (retired record)", "siRNA no.": 2, "total luciferase, z-score": 1.43, "Outcome": "inactive"}
{"gene symbol": "LOC729866 (retired record)", "siRNA no.": 3, "total luciferase, z-score": -0.0246, "Outcome": "inactive"}
{"gene symbol": "PLPBP (pyridoxal phosphate binding protein)", "siRNA no.": 1, "total luciferase, z-score": 0.573, "Outcome": "inactive"}
{"gene symbol": "PLPBP (pyridoxal phosphate binding protein)", "siRNA no.": 2, "total luciferase, z-score": -0.411, "Outcome": "inactive"}
{"gene symbol": "PLPBP (pyridoxal phosphate binding protein)", "siRNA no.": 3, "total luciferase, z-score": -2.14, "Outcome": "inactive"}

Sorted by “total luciferase, z-score” (descending): 5 of the entries above
{"gene symbol": "LOC729866 (retired record)", "siRNA no.": 2, "total luciferase, z-score": 1.43, "Outcome": "inactive"}
{"gene symbol": "LOC729866 (retired record)", "siRNA no.": 1, "total luciferase, z-score": 0.902, "Outcome": "inactive"}
{"gene symbol": "UGT2B7 (UDP glucuronosyltransferase family 2 member B7)", "siRNA no.": 3, "total luciferase, z-score": 0.515, "Outcome": "inactive"}
{"gene symbol": "UGT2B7 (UDP glucuronosyltransferase family 2 member B7)", "siRNA no.": 2, "total luciferase, z-score": 0.227, "Outcome": "inactive"}
{"gene symbol": "LOC729866 (retired record)", "siRNA no.": 3, "total luciferase, z-score": -0.0246, "Outcome": "inactive"}

Next results follow.
{"gene symbol": "MELK (maternal embryonic leucine zipper kinase)", "siRNA no.": 1, "total luciferase, z-score": -0.629, "Outcome": "inactive"}
{"gene symbol": "MELK (maternal embryonic leucine zipper kinase)", "siRNA no.": 2, "total luciferase, z-score": 0.0315, "Outcome": "inactive"}
{"gene symbol": "MELK (maternal embryonic leucine zipper kinase)", "siRNA no.": 3, "total luciferase, z-score": -1.28, "Outcome": "inactive"}
{"gene symbol": "PGP (phosphoglycolate phosphatase)", "siRNA no.": 1, "total luciferase, z-score": -1.16, "Outcome": "inactive"}
{"gene symbol": "PGP (phosphoglycolate phosphatase)", "siRNA no.": 2, "total luciferase, z-score": 0.877, "Outcome": "inactive"}
{"gene symbol": "PGP (phosphoglycolate phosphatase)", "siRNA no.": 3, "total luciferase, z-score": 0.566, "Outcome": "inactive"}
{"gene symbol": "MGAM2 (maltase-glucoamylase 2 (putative))", "siRNA no.": 1, "total luciferase, z-score": 0.188, "Outcome": "inactive"}
{"gene symbol": "MGAM2 (maltase-glucoamylase 2 (putative))", "siRNA no.": 2, "total luciferase, z-score": 0.336, "Outcome": "inactive"}
{"gene symbol": "MGAM2 (maltase-glucoamylase 2 (putative))", "siRNA no.": 3, "total luciferase, z-score": 0.146, "Outcome": "inactive"}
{"gene symbol": "COL5A2 (collagen type V alpha 2 chain)", "siRNA no.": 1, "total luciferase, z-score": 0.674, "Outcome": "inactive"}
{"gene symbol": "COL5A2 (collagen type V alpha 2 chain)", "siRNA no.": 2, "total luciferase, z-score": 0.581, "Outcome": "inactive"}
{"gene symbol": "COL5A2 (collagen type V alpha 2 chain)", "siRNA no.": 3, "total luciferase, z-score": -0.179, "Outcome": "inactive"}
{"gene symbol": "CRYGC (crystallin gamma C)", "siRNA no.": 1, "total luciferase, z-score": 2.31, "Outcome": "inactive"}
{"gene symbol": "CRYGC (crystallin gamma C)", "siRNA no.": 2, "total luciferase, z-score": 1.05, "Outcome": "inactive"}
{"gene symbol": "CRYGC (crystallin gamma C)", "siRNA no.": 3, "total luciferase, z-score": -0.731, "Outcome": "inactive"}
